{"sequences": {"note": "Protein sequences, listed by entry. Tags and fused reporters are not part of them.", "UniProt Q96CW5": "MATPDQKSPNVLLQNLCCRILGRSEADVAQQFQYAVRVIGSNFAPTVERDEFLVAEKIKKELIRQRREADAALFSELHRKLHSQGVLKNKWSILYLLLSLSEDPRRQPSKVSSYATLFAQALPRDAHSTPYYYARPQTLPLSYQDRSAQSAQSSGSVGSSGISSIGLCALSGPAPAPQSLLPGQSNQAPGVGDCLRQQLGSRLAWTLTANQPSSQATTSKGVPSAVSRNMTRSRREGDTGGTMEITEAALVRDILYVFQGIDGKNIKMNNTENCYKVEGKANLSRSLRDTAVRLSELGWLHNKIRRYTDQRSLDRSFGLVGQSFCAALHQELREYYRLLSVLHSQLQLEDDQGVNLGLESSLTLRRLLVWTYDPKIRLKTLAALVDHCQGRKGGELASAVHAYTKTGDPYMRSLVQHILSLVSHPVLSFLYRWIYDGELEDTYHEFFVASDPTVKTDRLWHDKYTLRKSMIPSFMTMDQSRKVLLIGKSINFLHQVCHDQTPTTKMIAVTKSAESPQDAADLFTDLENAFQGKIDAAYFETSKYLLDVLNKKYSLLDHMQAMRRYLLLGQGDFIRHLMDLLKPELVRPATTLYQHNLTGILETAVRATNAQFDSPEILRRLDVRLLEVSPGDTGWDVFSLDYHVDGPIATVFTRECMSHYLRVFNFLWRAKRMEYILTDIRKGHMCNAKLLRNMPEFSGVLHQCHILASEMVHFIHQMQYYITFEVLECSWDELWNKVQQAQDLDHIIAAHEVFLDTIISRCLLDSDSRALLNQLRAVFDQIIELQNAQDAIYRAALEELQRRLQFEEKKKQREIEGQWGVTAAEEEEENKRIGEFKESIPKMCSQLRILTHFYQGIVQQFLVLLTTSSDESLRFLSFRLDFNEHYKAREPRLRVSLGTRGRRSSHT", "UniProt Q9UGJ1": "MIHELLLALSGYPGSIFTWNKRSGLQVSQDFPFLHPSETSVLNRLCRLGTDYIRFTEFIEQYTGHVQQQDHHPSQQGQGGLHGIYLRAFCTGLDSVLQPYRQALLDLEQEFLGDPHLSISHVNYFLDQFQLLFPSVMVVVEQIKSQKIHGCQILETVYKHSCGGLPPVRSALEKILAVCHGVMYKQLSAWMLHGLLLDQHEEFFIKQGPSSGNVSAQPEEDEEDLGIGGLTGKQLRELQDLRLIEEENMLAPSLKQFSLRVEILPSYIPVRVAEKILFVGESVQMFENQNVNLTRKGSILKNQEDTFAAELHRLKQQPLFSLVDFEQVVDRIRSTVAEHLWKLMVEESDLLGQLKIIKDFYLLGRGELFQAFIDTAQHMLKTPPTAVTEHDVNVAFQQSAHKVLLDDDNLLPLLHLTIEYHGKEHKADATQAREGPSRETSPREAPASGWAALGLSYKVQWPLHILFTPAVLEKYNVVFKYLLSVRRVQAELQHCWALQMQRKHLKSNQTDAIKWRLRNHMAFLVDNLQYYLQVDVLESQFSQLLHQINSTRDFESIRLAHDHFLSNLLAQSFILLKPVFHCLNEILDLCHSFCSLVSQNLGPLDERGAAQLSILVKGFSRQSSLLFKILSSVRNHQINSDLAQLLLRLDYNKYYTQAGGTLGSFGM"}, "source": "paper doi:10.1101/2022.08.03.502613", "target": "GCP3-GFP-SII (endogenously tagged GCP3) (human (endogenous in HEK293T)) (UniProt Q96CW5)", "experiment": "pull-down", "note": "No constants are given. Whether binding was seen depends on the method and setting. Binding seen in cells or lysates may run through a third protein. Some results given as binding are weak or reduced against the parent protein; the word gives no strength.", "data": [{"substance": "GCP4 (from UniProt Q9UGJ1 1-667)", "values": [{"measurement": "binding", "value": "binds"}]}]}
